One molecule from article PMC9106008, “Design, Synthesis and Biological Evaluation of N-phenylindole Derivatives as Pks13 Inhibitors againstMycobacterium tuberculosis” (Molecules, 2022) can be followed below.

A short description of this data set: liver microsome stability assay.

Take `CCCNCC(O)COc1ccccc1C(=O)CCc1ccccc1` (stereo not drawn) [Propafenone]: the “Remaining (T = 60 min)” value (human liver microsomes, 60 min incubation) is 0.0%. The “CLint(mic)” value (human liver microsomes, 0.693/half-life/mg of microsome protein per mL) was 244.8 µL/min/mg. Further, the intrinsic metabolic clearance (CLint scaled) at 0.1 µM (human, liver microsomes, pH 7.4) came out at 220 mL/min/kg.
